Measured values reported in paper PMC524034.

By UniProt entry, the sequences of proteins in these tests, tags left out. Where a name states a change or a piece, a line headed by the entry shows the natural chain unless it says otherwise.
UniProt P10242: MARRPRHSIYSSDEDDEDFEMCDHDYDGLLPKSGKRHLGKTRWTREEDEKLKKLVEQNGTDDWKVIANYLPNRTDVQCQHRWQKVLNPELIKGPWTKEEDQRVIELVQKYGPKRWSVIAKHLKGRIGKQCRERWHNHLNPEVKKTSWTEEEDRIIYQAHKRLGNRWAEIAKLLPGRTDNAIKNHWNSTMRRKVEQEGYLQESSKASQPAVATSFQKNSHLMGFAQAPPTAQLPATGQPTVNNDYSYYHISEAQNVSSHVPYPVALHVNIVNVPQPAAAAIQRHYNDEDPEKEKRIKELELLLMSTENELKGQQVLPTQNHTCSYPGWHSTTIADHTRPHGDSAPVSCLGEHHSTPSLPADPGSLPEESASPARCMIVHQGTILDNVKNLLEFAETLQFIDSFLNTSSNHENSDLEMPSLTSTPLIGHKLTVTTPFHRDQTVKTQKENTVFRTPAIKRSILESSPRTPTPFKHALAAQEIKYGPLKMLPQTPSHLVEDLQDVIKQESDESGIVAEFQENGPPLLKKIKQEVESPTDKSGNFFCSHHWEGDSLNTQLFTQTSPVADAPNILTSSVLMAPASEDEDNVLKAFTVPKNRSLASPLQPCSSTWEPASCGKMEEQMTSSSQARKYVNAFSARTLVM

Biological target: c-Myb (K-562 nuclear extract) (human) (UniProt P10242)
Assay: competition with a labelled probe
Settings: vs GS945 probe, significant reduction especially at >=100-fold excess; 1 mM Tris pH 7.5, 7.5 mM NaCl, 1 mM EDTA, 0.7% glycerol, 0.1 mM DTT, 2 ug poly(dI-dC), 20 ul, 5 ug nuclear extract, 2.4 ng probe (Fig 2: 3.5 ug, 1 ng); protein in an extract

## TACAGGCATAACGGTTCCGTAGTGA (double strand) [c-Myb consensus competitor]
  binding result: binds

For at least one entry, the source does not settle the construct or the ends of the probe. Results from cells or extracts need not show a direct contact.
